Experimental data from PubChem BioAssay AID2685 (National Center for Advancing Translational Sciences (NCATS), 2010).
Among all 320,000 compounds or so, about 2,100 (0.66%) were called active. The inconclusive results got no clear call from the source; some entries with a clear call stand among them for comparison. Calls come from the whole dose curve; as a rule, active = well fitted inhibition curve with a large enough effect in the signal ratio, with a control signal flat (not every such curve was filed as active); inconclusive = small, poorly fitted or top-dose-only effect, or effect the other way, or a change in a side signal; inactive = flat fitted curve, though single readings scatter; the % refers to the signal ratio. Potencies beside an inconclusive call are fits to weak or partial responses and may not hold up.

Test: qHTS Assay for Lipid Storage Modulators in Drosophila S3 Cells
Conditions: BODIPY lipid droplet fluorescence, 18-24 h, cells fed with added oleic acid; lipid storage change, negative = inhibition: at 46.1 µM (top of the series) unless noted
Procedure, shortened: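 Drosophila S3 cells got compounds at several concentrations plus oleic acid (400 uM solution). Laser-scanning cytometry with 488 nm excitation read lipid droplets at 500-530 nm and cells at 575-640 nm. Percent activity was relative to 20 uM Triacsin C.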
% is set by controls: 0 for no effect and ±100 for the full control effect; potency is the fitted concentration of half-maximal effect.

Row | SMILES | Potency | lipid storage change, negative = inhibition
1 | O=C(c1cc2ccccc2o1)N(Cc1nnc(-c2ccccc2Cl)o1)C1CC1 | inconclusive: 2.91 µM [activator, partial curve] | –
2 | Cc1ccc(C(=O)N2CCN(S(=O)(=O)N3CCCCC3)CC2)cc1 | – | inconclusive: 38.9%
3 | CCc1cccc(NC(=O)CSC2=NS(=O)(=O)c3ccccc32)c1 | inconclusive: 3.66 µM [falling, single point] | –
4 | COc1ccccc1NC(=O)CCc1nnc2ccc(N3CCC4(CC3)OCCO4)nn12 | active: 2.06 µM | –
5 | CCOc1ccc(OCC)c(NC(=O)CN2CCN(C(=O)c3ccco3)CC2)c1 | inconclusive: 6.51 µM [activator, single point] | –
6 | Cc1cc(NC(=O)Cc2csc(-c3ccccc3)n2)ccc1Br | – | inconclusive: 2.77%
7 | O=C(CC1SC(=NCC2CCCO2)NC1=O)Nc1cccc2ccccc12 (stereo not given) | – | inconclusive: -50.6%
8 | Cc1ccc(NS(=O)(=O)c2ccc(NC(=O)C3CCCO3)cc2)cc1 (stereo not given) | – | inactive
9 | COC(=O)/C(=C\c1cc(OC)c(OC)c(OC)c1)c1nc2ccccc2[nH]1 | inconclusive: 29.1 µM [cytotoxic, partial curve] | –
10 | N/C(Cc1ccc(Cl)cc1)=N\OC(=O)c1ccc2ccccc2c1 | – | inconclusive: 27.6%
11 | Clc1ccc(-c2nc3ccncc3[nH]2)cc1 | – | inconclusive: -18.3%
12 | c1ccc(CNc2nc(NCc3ccccc3)c3ccccc3n2)cc1 | active: 16.4 µM | –
13 | O=C1CC(NC(=O)c2ccc(Cl)cc2)C(=O)N1 (stereo not given) | – | inconclusive: -38.5%
14 | CCc1ccc(OCc2ccc(C(=O)OC)o2)cc1 | – | inconclusive: 62%
15 | COc1ccc(NC(=O)Nc2ccc(OCc3ccccc3)cc2)cn1 | – | inconclusive: 12.1%
16 | COc1ccc(NC(=O)Nc2ccc3c(c2)CCC3)c(OC)c1 | – | inactive
17 | Cc1nc2nc[nH]n2c(=O)c1C/C=C/c1ccccc1 | – | inconclusive: 39.6%
18 | C/C(CC(=O)Nc1ccc2ccccc2c1)=N\NC(=O)c1cnccn1 | inconclusive: 23.1 µM [activator, partial curve, poor fit] | –
19 | Cc1cccc2cc(CN(Cc3ccccc3)C(=O)N(C)C)c(=O)[nH]c12 | inconclusive: 0.231 µM [activator, partial curve] | –
20 | CCCCNC(=S)N1CCN(CC)CC1 | – | inconclusive: -21.9%
21 | O=C(NNC(=S)NC(=O)C12CC3CC(CC(C3)C1)C2)c1ccncc1 | – | inconclusive: 22.9%
22 | O=C(NCc1cccc(Cl)c1)c1cccc(S(=O)(=O)N2CCCCC2)c1 | inconclusive: 0.116 µM [cytotoxic, full curve, poor fit] | –
23 | COc1ccc(NC(=O)N2CCN(S(=O)(=O)c3ccc(F)cc3)CC2)c(OC)c1 | – | inconclusive: 18.5%
24 | COc1ccc(C)cc1NC(=O)C(Sc1nnc(Nc2cc(C)ccc2OC)s1)c1ccccc1 (stereo not given) | – | inconclusive: 24.8%
25 | Cc1ccc(C)c(N2CCN(c3ncccc3[N+](=O)[O-])CC2)c1 | – | inconclusive: -29.7%

Row | SMILES | Potency | lipid storage change, negative = inhibition
26 | CC(=O)N(Cc1cc(=O)[nH]c2ccccc12)c1cccc(C)c1 | inconclusive: 29.1 µM [activator, single point] | –
27 | CCOC(=O)N1CCC(N2CCCC(C(=O)c3cc(C)c(OC)c(C)c3)C2)CC1 (stereo not given) | inconclusive: 3.26 µM [falling, single point] | –
28 | CCC(C)c1ccc(OCC(=O)Nc2ccc(CN3CCOCC3)cc2)cc1 (stereo not given) | inconclusive: 29.1 µM [activator, single point] | –
29 | CN(C)S(=O)(=O)c1ccc2c(c1)nc1n2CCC1 | inconclusive: 0.0052 µM [falling, full curve, poor fit] | –
30 | C/C(=N\O)C(C)(C)Nc1cccc(F)c1 | – | inconclusive: -18.7%
31 | NC(=O)Cn1cc(C(=O)c2cccs2)c2ccccc21 | inconclusive: 18.4 µM [activator, single point] | –
32 | COc1cc(C(=O)NC(=S)NC(C)C)cc(OC)c1OC | inconclusive: 0.651 µM [activator, partial curve] | –
33 | CCC(=O)N1c2ccc(S(=O)(=O)CCC(=O)N3CCN(c4ccccc4F)CC3)cc2CC1C (stereo not given) | – | inconclusive: 24.9%
34 | CCOC(=O)c1sc(=NC(=O)c2ccc(Cl)s2)n(C)c1C | – | inconclusive: 7.89%
35 | CCOC(=O)c1ccc(NC(=O)NC2CCN(CC(=O)NCc3ccc4c(c3)OCO4)CC2)cc1 | inconclusive: 2.59 µM [activator, single point] | –
36 | Cc1ccc(COc2ccc(-c3nnco3)cc2)cc1 | – | inconclusive: -2.3%
37 | Cc1[nH]n(-c2ccccc2)c(=O)c1C=Nc1ccc(S(=O)(=O)NC(N)=O)cc1 | – | inconclusive: -17.1%
38 | CCn1cc(CN2CCN(Cc3ccc(OC)c(C)c3C)C(CCO)C2)c(C)n1 (stereo not given) | – | inactive
39 | COc1ccc(-c2nnn(CC(=O)Nc3ccc4c(c3)OCCO4)n2)cc1OC | – | inconclusive: 3.85%
40 | COc1ccc(Oc2nnc(-c3ccccc3)cc2C#N)cc1 | – | inconclusive: 13.9%
41 | COCCn1c(Cc2ccccc2)nnc1SCC(=O)NC(C)(C)C | – | inconclusive: -16.6%
42 | CC(=O)N1CCC(C(=O)c2ccc(Cl)cc2)CC1 | – | inconclusive: 2.74%
43 | COc1ccc(NS(=O)(=O)c2ccc3nc(COc4ccc5ccccc5c4)[nH]c3c2)cc1 | active: 23.1 µM | –
44 | Cc1onc(-c2ccccc2)c1C(=O)N1CCN(S(=O)(=O)c2ccccc2Br)CC1 | inconclusive: 1.46 µM [activator, full curve] | –
45 | CCOC(=O)NC(Nc1nnc(C)s1)(C(=O)OCC)C(F)(F)F (stereo not given) | – | inconclusive: -34.5%
46 | CCCc1ccc2oc(C(=O)N(C)CCn3ccnc3C)c(C)c2c1 | – | inconclusive: 26.5%
47 | CCCCCCOC(=O)C1=C(C)NC(=O)NC1c1ccc2c(c1)OCO2 (stereo not given) | – | inconclusive: 41.3%
48 | Cc1cc(NS(=O)(=O)c2ccc(NC(=O)COc3cc(C)c(Cl)c(C)c3)cc2)no1 | – | inconclusive: -14%
49 | C/C(O)=c1/ccc2cccc3nc(C)nc1c23 | – | inconclusive: -1.9%
50 | CCc1ccccc1NC(=O)CSC1=C(C#N)C(c2ccc(O)c(OC)c2)C2=C(CCCC2=O)N1 (stereo not given) | inconclusive: 3.66 µM [activator, partial curve, poor fit] | –

Row | SMILES | Potency | lipid storage change, negative = inhibition
51 | O=C(CSc1nnc(-c2n[nH]c3ccccc23)n1-c1ccccc1)Nc1ccccc1Cl | – | inconclusive: 22.8%
52 | CCN(CCCNC(=O)CNC(=O)c1nn(-c2ccc(OC)cc2)c(=O)c2ccccc12)c1cccc(C)c1 | inconclusive: 0.0731 µM [falling, full curve, poor fit] | –
53 | CCCCCNC(=O)c1cc(S(=O)(=O)N2CCCCC2)ccc1F | – | inconclusive: 10.5%
54 | Brc1ccc(C[n+]2ccccc2)cc1 | – | inconclusive: 3.32%
55 | Cc1ccc(NS(=O)(=O)c2ccc3c(c2)oc(=O)n3C)cc1C | – | inactive
56 | COCCNC(=O)CN(C(=O)Cn1nnc2ccccc21)c1ccc(C)cc1 | – | inconclusive: -2.13%
57 | Cc1ccc(-c2cc(C(=O)NCc3ccc4c(c3)OCO4)no2)cc1 | inconclusive: 3.66 µM [falling, partial curve, poor fit] | –
58 | O=C1CC(N2CCC(c3nc4ccccc4s3)CC2)C(=O)N1Cc1ccccc1 (stereo not given) | inconclusive: 1.84 µM [rising, single point] | –
59 | Cc1ccc(C(=O)NNC(=O)CSc2nnc(-c3ccncc3)n2-c2ccc(C)cc2)cc1 | inconclusive: 2.59 µM [falling, partial curve] | –
60 | COc1ccc(S(=O)(=O)Nc2ccccc2C(=O)NCc2cccnc2)cc1OC | – | inconclusive: -3.68%
61 | Cc1cc(C)n(-c2nc(C(=O)O)cs2)n1 | – | inconclusive: 61.1%
62 | O=C(NCC(c1ccc(F)cc1)N1CCOCC1)c1cc(F)c(F)c(F)c1F (stereo not given) | – | inconclusive: 105%
63 | CCCc1nnc(SCC(=O)N2CCCCC2C)n1CCOC (stereo not given) | – | inconclusive: 9.48%
64 | O=C(Cn1ccc2ccccc2c1=O)NCCC(=O)N1CCCCC1 | inconclusive: 29.1 µM [activator, single point] | –
65 | CC(C)[C@H](NC(=O)c1c(F)cccc1F)C(=O)N1CCN(c2ccc(F)cc2)CC1 | inconclusive: 6.51 µM [activator, single point] | –
66 | O=C(N/N=C/c1cccc(O)c1)NC1CCCCC1 | inconclusive: 3.26 µM [falling, single point] | –
67 | O=C(N/N=C\c1c(O)ccc2ccccc12)c1cncc(Br)c1 | inconclusive: 29.1 µM [falling, single point] | –
68 | COC(=O)C1=C(C)N(c2ccc(F)cc2)/C(=C/c2ccc(O)cc2)C1=O | – | inconclusive: -0.103%
69 | N=C1/C(=C\c2ccc(SCc3ccccc3)o2)C(=O)N=C2SC(CC(=O)N3CCOCC3)=NN12 | – | inconclusive: -4.35%
70 | Cc1c(Cl)cccc1NC(=S)NC1CCN(Cc2ccccc2)CC1 | – | inconclusive: 3.46%
71 | Cc1cc(Cn2nc(C(=O)NCc3cccc(C(F)(F)F)c3)cc2-c2ccccc2)on1 | inconclusive: 6.51 µM [falling, single point] | –
72 | O=C(COc1ccc(S(=O)(=O)N2CCCC2)cc1Cl)NCc1cccnc1 | inconclusive: 2.91 µM [activator, single point] | –
73 | Cc1nn(C)c(C)c1S(=O)(=O)N1CCCC(C(=O)NCC2COc3ccccc3O2)C1 (stereo not given) | – | inconclusive: 25%
74 | COc1cccc(CNC(=O)COC(=O)c2cccc(S(=O)(=O)N3CCN(C(C)=O)CC3)c2)c1 | inconclusive: 0.231 µM [activator, partial curve, poor fit] | –
75 | O=C(NCCN1CCN(C(=O)c2cccc([N+](=O)[O-])c2)CC1)C(=O)NCc1ccc(Cl)cc1 | active: 6.51 µM | –

Of the compounds above, these contain a cyano group.
Row | SMILES | Potency | lipid storage change, negative = inhibition
40 | COc1ccc(Oc2nnc(-c3ccccc3)cc2C#N)cc1 | – | inconclusive: 13.9%
50 | CCc1ccccc1NC(=O)CSC1=C(C#N)C(c2ccc(O)c(OC)c2)C2=C(CCCC2=O)N1 (stereo not given) | inconclusive: 3.66 µM [activator, partial curve, poor fit] | –
